This note sets out measurements from publication PMC9113893, “Carbon Material Hybrid Construction on an Aptasensor for Monitoring Surgical Tumors”.

This series deals with T1, carcinoembryonic antigen (CEA) (human) (UniProt P06731).
T1 sequence (looked up, limits assumed): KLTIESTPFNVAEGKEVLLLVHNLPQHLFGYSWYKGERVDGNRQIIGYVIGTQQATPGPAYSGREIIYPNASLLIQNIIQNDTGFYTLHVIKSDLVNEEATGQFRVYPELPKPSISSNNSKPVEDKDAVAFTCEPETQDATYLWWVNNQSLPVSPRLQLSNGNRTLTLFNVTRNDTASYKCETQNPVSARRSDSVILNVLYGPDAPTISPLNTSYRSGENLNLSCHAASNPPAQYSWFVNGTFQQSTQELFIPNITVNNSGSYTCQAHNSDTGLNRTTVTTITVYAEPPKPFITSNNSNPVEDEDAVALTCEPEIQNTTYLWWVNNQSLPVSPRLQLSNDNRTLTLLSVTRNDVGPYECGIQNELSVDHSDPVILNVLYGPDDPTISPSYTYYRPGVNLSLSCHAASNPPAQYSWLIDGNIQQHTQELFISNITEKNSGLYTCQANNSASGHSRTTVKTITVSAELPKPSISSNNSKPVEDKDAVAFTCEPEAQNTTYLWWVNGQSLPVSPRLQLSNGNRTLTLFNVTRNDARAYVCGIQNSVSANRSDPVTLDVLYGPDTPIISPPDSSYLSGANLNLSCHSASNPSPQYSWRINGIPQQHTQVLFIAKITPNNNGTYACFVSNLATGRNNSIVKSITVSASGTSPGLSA
Put plainly: electrochemical aptasensor (interdigitated electrode, sandwich). Particulars: 1 uM detection aptamer added to CEA held by capture aptamer N1, no separate read-out for N2; PBS or 1:100 diluted human serum; graphene-modified IDE blocked with 1% BSA; salt and temperature not stated; commercial protein; single-stranded DNA.

The exact form of at least one protein or probe is not confirmed. At least one verdict was read from the data and is not stated in words by the source. Protein sequences can lack the tags named with them.

Turning to “AGGGGGTGAAGGGATACCC [anti-CEA detection aptamer (detection probe)]”, the binding result was “binds”.
